From paper PMC9456172
These are yes or no findings as the source states them, for the method shown. In cells and extracts the contact can be indirect. Some results given as binding are weak or reduced against the parent protein; the word gives no strength.

Sequences of proteins named here, by UniProt entry; tags and fusion partners are left off.
UniProt P38936: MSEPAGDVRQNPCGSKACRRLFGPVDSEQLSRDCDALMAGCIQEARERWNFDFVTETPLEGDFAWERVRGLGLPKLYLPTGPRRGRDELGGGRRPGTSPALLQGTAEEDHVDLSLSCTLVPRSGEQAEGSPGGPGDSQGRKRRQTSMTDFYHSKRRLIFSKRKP
UniProt Q12888: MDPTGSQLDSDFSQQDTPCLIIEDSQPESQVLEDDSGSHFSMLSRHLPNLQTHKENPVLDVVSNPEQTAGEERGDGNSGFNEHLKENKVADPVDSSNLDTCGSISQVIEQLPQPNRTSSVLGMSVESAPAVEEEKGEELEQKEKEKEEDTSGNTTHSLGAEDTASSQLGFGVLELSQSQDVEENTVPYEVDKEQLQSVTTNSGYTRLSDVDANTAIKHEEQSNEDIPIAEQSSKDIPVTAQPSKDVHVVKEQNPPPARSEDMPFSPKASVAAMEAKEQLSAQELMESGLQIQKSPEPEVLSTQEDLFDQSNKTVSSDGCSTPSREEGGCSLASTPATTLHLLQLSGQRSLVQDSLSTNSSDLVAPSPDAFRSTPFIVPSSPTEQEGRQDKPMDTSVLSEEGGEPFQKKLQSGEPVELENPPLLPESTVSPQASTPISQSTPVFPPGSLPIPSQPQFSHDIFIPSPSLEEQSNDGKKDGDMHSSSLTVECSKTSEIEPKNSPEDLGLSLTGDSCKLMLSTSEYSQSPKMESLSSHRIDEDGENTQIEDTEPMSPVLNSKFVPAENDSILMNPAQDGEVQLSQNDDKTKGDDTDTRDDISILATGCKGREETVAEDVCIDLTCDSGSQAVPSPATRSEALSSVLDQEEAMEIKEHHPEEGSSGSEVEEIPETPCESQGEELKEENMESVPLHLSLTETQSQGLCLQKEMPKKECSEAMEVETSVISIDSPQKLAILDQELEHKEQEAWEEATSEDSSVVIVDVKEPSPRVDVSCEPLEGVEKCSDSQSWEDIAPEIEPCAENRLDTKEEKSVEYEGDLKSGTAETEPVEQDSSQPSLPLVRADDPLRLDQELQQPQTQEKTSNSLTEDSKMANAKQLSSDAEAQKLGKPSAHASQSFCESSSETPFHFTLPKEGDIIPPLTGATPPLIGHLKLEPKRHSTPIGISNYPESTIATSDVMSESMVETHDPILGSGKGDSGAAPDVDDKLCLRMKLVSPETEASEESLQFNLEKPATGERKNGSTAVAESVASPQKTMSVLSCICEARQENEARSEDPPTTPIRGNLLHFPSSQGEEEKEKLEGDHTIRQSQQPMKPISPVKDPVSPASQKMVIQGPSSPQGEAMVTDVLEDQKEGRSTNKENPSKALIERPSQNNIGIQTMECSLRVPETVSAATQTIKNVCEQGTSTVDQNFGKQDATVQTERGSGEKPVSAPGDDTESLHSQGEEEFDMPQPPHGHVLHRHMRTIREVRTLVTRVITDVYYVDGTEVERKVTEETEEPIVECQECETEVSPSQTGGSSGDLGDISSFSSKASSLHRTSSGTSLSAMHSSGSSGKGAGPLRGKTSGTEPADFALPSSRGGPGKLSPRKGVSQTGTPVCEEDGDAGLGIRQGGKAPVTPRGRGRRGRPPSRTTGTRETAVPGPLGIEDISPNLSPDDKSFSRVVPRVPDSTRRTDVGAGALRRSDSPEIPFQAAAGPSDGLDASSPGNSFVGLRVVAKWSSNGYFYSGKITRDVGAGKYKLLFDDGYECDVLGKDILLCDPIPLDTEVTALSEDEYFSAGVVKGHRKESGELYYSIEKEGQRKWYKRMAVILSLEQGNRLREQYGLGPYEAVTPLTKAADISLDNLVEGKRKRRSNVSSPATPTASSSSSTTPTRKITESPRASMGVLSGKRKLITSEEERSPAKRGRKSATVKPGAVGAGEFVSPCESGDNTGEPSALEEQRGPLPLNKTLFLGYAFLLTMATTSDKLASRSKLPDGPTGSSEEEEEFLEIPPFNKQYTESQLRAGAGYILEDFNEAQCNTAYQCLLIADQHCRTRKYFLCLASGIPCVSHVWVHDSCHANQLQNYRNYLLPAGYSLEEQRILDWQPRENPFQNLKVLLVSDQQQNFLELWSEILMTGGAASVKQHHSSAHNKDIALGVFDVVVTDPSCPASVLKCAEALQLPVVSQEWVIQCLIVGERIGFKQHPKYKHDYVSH

Target: p21 (human (endogenous in MCF10A)) (UniProt P38936)
Assay: proximity ligation; in situ PLA (DuoLink in situ Orange) on fixed, permeabilized MCF10A cells, endogenous proteins detected by pairs of primary antibodies; untreated and 6 h, 24 h (48 h) after 5-Gy X-ray irradiation; PLA spots per nucleus counted by automated image cytometry (at least 5000 cells)

binding: binds
Substance: p53 Binding Protein 1 (53BP1) (from UniProt Q12888 1-1972)
